Data taken from PubChem BioAssay AID2685 (National Center for Advancing Translational Sciences (NCATS), 2010).
Several values for one entry are separate records, joined by “and”; a condition that tells them apart may be missing. Identical values can stand only once. The list shows a part of the results. Further columns of the screen follow, without active or inactive calls. The list favours compounds with an active or inconclusive main result. Words in brackets tell the shape of the fitted curve; partial curves, single points and poor fits give uncertain potencies.

Experiment: qHTS Assay for Lipid Storage Modulators in Drosophila S3 Cells;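 for cell number change: cells counted by Cell Tracker Red CMTPX staining in the red channel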
Details: BODIPY lipid droplet fluorescence, 18-24 h; for cell number change: measured here: cell count max response, cells fed with added oleic acid
In short: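 Drosophila S3 cells got compounds at several concentrations plus oleic acid (400 uM solution). Laser-scanning cytometry with 488 nm excitation read lipid droplets at 500-530 nm and cells at 575-640 nm. Percent activity was relative to 20 uM Triacsin C.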

[1] = measured here: cell number channel AC50, cells fed with added oleic acid
[2] = measured here: lipid fluorescence (Fed channel) AC50, cells fed with added oleic acid

CC(C)NC(=O)c1ccc(-c2ccc(Cl)c(C(F)(F)F)c2)o1
cell number change: 109%
AC50 [1]: 20.6 µM [rising, partial curve]
AC50 [2]: 4.11 µM [rising, single point]

Cc1cc(Cl)c(S(=O)(=O)N2CC(C)OC(C)C2)cc1OCC(N)=O (configuration not stated)
cell number change: 33%
AC50 [1]: 0.103 µM [rising, full curve, poor fit]
AC50 [2]: 0.231 µM [rising, full curve, poor fit]

CCOC(=O)[C@H]1[C@H]2COc3ccc(Cl)cc3[C@@H]2N2C(=O)c3cc(F)ccc3NC(=O)[C@@]12C
AC50 [1]: 6.51 µM [falling, single point]

Cc1cc(C(=O)N/N=C/c2ccc(-c3cccc(Br)c3)o2)n[nH]1
cell number change: -32.8%
AC50 [1]: 8.2 µM [falling, partial curve, poor fit]

CCc1nc(N(CC)CC)c2oc3ccccc3c2n1
cell number change: -44.8%
AC50 [1]: 29.1 µM [falling, single point]
AC50 [2]: 32.6 µM [falling, single point]

O=C(c1ccc(Cn2cc([N+](=O)[O-])cn2)o1)N1CCCCCC1
cell number change: -49.8%
AC50 [1]: 35.5 µM [falling, single point]

COC(=O)[C@@]1(Cc2ccc(F)cc2)[C@H]2c3cc(C(=O)N(C)C)n(CCc4ccccn4)c3C[C@H]2CN1C(=O)c1ccccc1
cell number change: -4.34%
AC50 [2]: 6.51 µM [rising, single point]

Cc1cccc(C)c1NC(=O)C(c1ccc([N+](=O)[O-])cc1)N1CCCCC1 (configuration not stated)
cell number change: 14.5%
AC50 [2]: 4.11 µM [rising, single point]

Cc1ccccc1NC(=S)NC(=O)c1cc(-c2ccccc2)nc2ccccc12
cell number change: 30.8%
AC50 [1]: 16.4 µM [rising, single point]
AC50 [2]: 29.1 µM [rising, single point]

CCC(C)(C)NC(=O)C(c1ccc(OC)cc1)N(CC1CCCO1)C(=O)CCC(=O)Nc1cc(C)on1 (configuration not stated)
cell number change: -25.4%
AC50 [2]: 11.6 µM [falling, partial curve]

C/C(=C\c1cc(C(=O)O)c(C)o1)CO
cell number change: -24.8%
AC50 [1]: 3.66 µM [falling, full curve, poor fit]
AC50 [2]: 3.26 µM [falling, partial curve]

CCOC(=O)CN1C(=O)C2(OCCCO2)c2ccccc21
AC50 [2]: 0.231 µM [falling, full curve]

Cc1ncsc1C(=O)Nc1nc2c(s1)CCCC2
AC50 [1]: 1.84 µM [rising, partial curve]
AC50 [2]: 4.11 µM [rising, partial curve]

COc1cc(NC(=O)Cn2nc(C(F)(F)F)c(Br)c2C)cc([N+](=O)[O-])c1
cell number change: -30.3%
AC50 [1]: 11.6 µM [falling, partial curve]
AC50 [2]: 14.6 µM [falling, partial curve, poor fit]

CCOC(=O)C(NC(=O)Nc1ccc(F)cc1F)(Oc1ccc(F)cc1)C(F)(F)F (configuration not stated)
cell number change: -37.6%
AC50 [1]: 1.16 µM [falling, full curve, poor fit]

CC(=O)NC(CC(C)C)C(=O)NC(=O)NCc1ccccc1 (configuration not stated)
cell number change: 13.8%

CCOC(=O)Cn1c(=O)oc2cc(S(=O)(=O)Nc3ccc(F)cc3)ccc21
cell number change: -23.1%

CC(C)(C)c1ccc(S(=O)(=O)N2CCN(CC(=O)NC(=O)NC3CCCCC3)CC2)cc1
cell number change: -35.5%
AC50 [1]: 13 µM [falling, partial curve]
AC50 [2]: 32.6 µM [falling, partial curve, poor fit]

COc1ccc(NC(=S)c2ccc3ccccc3n2)cc1
cell number change: -12.5%
AC50 [2]: 18.4 µM [falling, partial curve]

Cc1ccc(-c2nn(-c3ccccc3)cc2C=O)o1
cell number change: -7.69%
AC50 [1]: 0.092 µM [rising, full curve, poor fit]

CCn1c(SCC(=O)Nc2ccc3c(c2)OCO3)nnc1C(C)C
cell number change: -20.6%
AC50 [2]: 29.1 µM [rising, single point]

CCOc1ccc(-c2nnn(CC(=O)Nc3ccccc3OC)n2)cc1OCC
cell number change: -20%
AC50 [2]: 0.731 µM [rising, single point]

COc1cc(NC(=O)c2cccc([N+](=O)[O-])c2)ccc1NC(=O)c1cc2ccccc2o1
cell number change: -9.37%
AC50 [2]: 0.00411 µM [falling, full curve, poor fit]

CC1(c2ccc(Cl)cc2)NC(=O)N(CC(=O)N2CCN(S(=O)(=O)c3ccccc3)CC2)C1=O (configuration not stated)
AC50 [1]: 0.092 µM [falling, full curve, poor fit]

O=C(COC(=O)CCSc1ccc(Cl)cc1)NCc1ccccc1Cl
cell number change: -7.73%
AC50 [2]: 0.00411 µM [falling, full curve, poor fit]

Cc1ccc(NC(=O)C2CC(O)CN2C(=O)OCc2ccccc2)c(C)c1 (configuration not stated)
cell number change: 31%
AC50 [1]: 29.1 µM [rising, single point]

O=C(NCC1CCCO1)c1cc(C(=O)C2CC2)c[nH]1 (configuration not stated)
cell number change: 15%
AC50 [2]: 2.59 µM [falling, single point]

O=C(Cc1ccccc1)Nc1ccc(Br)c(Cl)c1
cell number change: -31.3%
AC50 [1]: 32.6 µM [falling, single point]
AC50 [2]: 6.51 µM [rising, single point]

COCCn1c(-c2cccs2)csc1=Nc1cccnc1
AC50 [1]: 6.51 µM [rising, single point]
AC50 [2]: 3.66 µM [rising, single point]

O=C(Nc1ncccn1)c1cccs1
cell number change: 9.71%
AC50 [2]: 6.51 µM [falling, single point]

O=C(NCCCNC(=O)c1ccccn1)c1ccc(Br)cc1
AC50 [1]: 2.31 µM [falling, partial curve, poor fit]

COc1cccc(NC(=O)Nc2cccn(Cc3ccc(C)cc3)c2=O)c1
cell number change: -34.4%
AC50 [1]: 16.4 µM [falling, single point]

COc1ccc(CCNS(=O)(=O)c2cc3c4c(c2)CCN4C(=O)CC3)cc1OC
cell number change: -99.2%
AC50 [1]: 18.4 µM [falling, single point]
AC50 [2]: 3.66 µM [rising, partial curve]

CCC(C)(C)NC(=O)CN(Cc1ccccc1)C(=O)CCC(=O)Nc1nccs1
AC50 [2]: 29.1 µM [rising, single point]

Cc1ccc(Cn2c(=O)c3c(nc4n3CCCN4Cc3ccccc3)n(C)c2=O)cc1
cell number change: -3.83%

CCCc1cc(=O)oc2cc(OCC(=O)NCc3ccccn3)ccc12
cell number change: -51%
AC50 [1]: 0.0058 µM [falling, full curve, poor fit]
AC50 [2]: 29.1 µM [falling, single point]

CCCc1cc(=O)[nH]c(SCCOc2ccc(OCC)cc2)n1
cell number change: -84.5%
AC50 [1]: 23.1 µM [falling, single point]

COc1cc(C(=O)NCC(=O)NCCSc2ccc(Br)cc2)cc(OC)c1OC
cell number change: -44%
AC50 [1]: 20.6 µM [falling, partial curve, poor fit]
AC50 [2]: 25.9 µM [falling, partial curve, poor fit]

Cc1oc2c(C)c3oc(=O)c(CCC(=O)N4C[C@H]5C[C@@H](C4)c4cccc(=O)n4C5)c(C)c3cc2c1C
cell number change: 15.9%

COc1ccc(C(=O)NCc2ccc(S(N)(=O)=O)cc2)cc1[N+](=O)[O-]
cell number change: 42.1%

CC1(NC(=O)C2CCN(C(=O)Nc3ccccc3)CC2)CCS(=O)(=O)C1 (configuration not stated)
cell number change: 7.67%

COc1cc(OC)cc(C(=O)N[C@H](C(=O)Nc2ccc3c(c2)OCO3)C(C)C)c1
AC50 [2]: 0.146 µM [rising, single point]

CC(=O)c1c(C)[nH]c(C(=O)N2CCCC(C)C2)c1C (configuration not stated)
cell number change: -4.26%

COC(=O)CSc1cc([N+](=O)[O-])cc2c1c(C1OCCO1)nn2-c1ccccc1
cell number change: 13.5%
AC50 [2]: 2.06 µM [rising, single point]

Cc1cccc(OCCC(=O)OC(C)C(=O)Nc2ccc(Cl)cn2)c1 (configuration not stated)
cell number change: -5.87%
AC50 [2]: 3.66 µM [rising, full curve]

COc1ccc(-c2cc(C(=O)OCC(=O)NC3CC3)c3ccccc3n2)cc1
cell number change: 3.53%

O=[N+]([O-])c1ccc(/C=N/Nc2nc(NCc3ccccc3)nc(N3CCOCC3)n2)cc1
AC50 [1]: 0.92 µM [rising, full curve]
AC50 [2]: 2.06 µM [rising, partial curve]

O=C(O)C1CC=CCC1C(=O)NCCCCc1ccccc1 (configuration not stated)
cell number change: 8.22%
AC50 [2]: 6.31 µM [falling, single point]

COc1ccc([C@H]2CC(=O)C=C(C#CC(C)(C)C)C2)cc1
cell number change: -25.8%
AC50 [2]: 13 µM [rising, partial curve]

CC(C)=C1C2C=CC1C(C(=O)Nc1cccc(C)c1)C2C(=O)O (configuration not stated)
cell number change: -3.02%
AC50 [2]: 0.00517 µM [falling, full curve, poor fit]

CC(C)C(NS(=O)(=O)c1cccc2nsnc12)C(=O)N1CCc2ccccc2C1 (configuration not stated)
cell number change: -19.2%
AC50 [2]: 14.6 µM [falling, partial curve, poor fit]

COc1ccc(OCCn2cnc3ccccc32)cc1
cell number change: 6.35%
AC50 [2]: 20.6 µM [falling, single point]

COc1cccc(C(=O)Nc2ccccc2N2CCCC2)c1
cell number change: 210%
AC50 [1]: 18.4 µM [rising, single point]
AC50 [2]: 3.26 µM [rising, single point]

CC1CCC(C(C)C)C(OC(=O)Cn2c(-c3ccccc3)[n+](C)c3ccccc32)C1 (configuration not stated)
cell number change: -53.5% and -75.7%
AC50 [1]: 5.8 µM [falling, full curve]
AC50 [2]: 4.61 µM [falling, full curve] and 5.8 µM [falling, full curve]

COc1cccc(NC(=O)c2cc([N+](=O)[O-])ccc2NC(=O)CNCC2CCCO2)c1 (configuration not stated)
cell number change: 44.4%
AC50 [1]: 9.2 µM [rising, partial curve, poor fit]

CCCc1nc2oc3c(NCC4CCCO4)ncnc3c2c2c1COC(C)(C)C2 (configuration not stated)
cell number change: -53.7%
AC50 [1]: 1.03 µM [falling, full curve]
AC50 [2]: 18.4 µM [falling, single point]
